PubChem BioAssay AID1159578 | Peter MacCallum Cancer Centre – 2015

Test: 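Genome-wide hunt for genes controlling movement of lymphatic endothelial cells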 (primary screen)
Cells: human lymphatic endothelial cells
Knock-down reagent: siRNA pool against human genes, 40 nM
Duration: 48 h after transfection
Read-out: 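High-content imaging of dye-stained cells in a scratch assay measures filled wound area and nuclei per well; duplicate means given as ratio to mock and robust z-score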
Scale: migration robust z-score: higher = faster migration into the scratch; nuclei per well: higher = more cells in the well
Hit rule: 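Migration changed when robust z exceeds 2 or falls below -2 and mean nuclei number is at least 3300; otherwise not called changed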
Calls: active = migration changed; inactive = no migration change, or too few cells
In all, the deposit lists about 18,000 reagents; this is an unselected part. About 1,030 of them (5.7%) were called active. 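Inactive calls also include pools with fewer than 3300 nuclei, whose migration was not assessed.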 Raw values vary from plate to plate and are shown uncorrected. Entries without a mark were called inactive. Not all columns of the deposit are shown. No sequences are given here.

{"target":"C9orf50","migration robust z-score":-1.38,"migration class with cell-count check":"migration z between -2 and 2; enough cells","nuclei per well, duplicate mean":6644}
{"target":"ABCA1","migration robust z-score":-0.75,"migration class with cell-count check":"migration z between -2 and 2; enough cells","nuclei per well, duplicate mean":6274}
{"target":"GINS2","migration robust z-score":0.72,"migration class with cell-count check":"migration z between -2 and 2; enough cells","nuclei per well, duplicate mean":6260}
{"target":"RXRB","migration robust z-score":-0.57,"migration class with cell-count check":"migration z between -2 and 2; enough cells","nuclei per well, duplicate mean":3876}
{"target":"NUP37","migration robust z-score":-0.22,"migration class with cell-count check":"migration z between -2 and 2; enough cells","nuclei per well, duplicate mean":5692}
{"target":"TRPC1","migration robust z-score":-0.36,"migration class with cell-count check":"migration z between -2 and 2; enough cells","nuclei per well, duplicate mean":4666}
{"target":"MARCHF4","migration robust z-score":0.7,"migration class with cell-count check":"migration z between -2 and 2; enough cells","nuclei per well, duplicate mean":5883}
{"target":"ECHS1","migration robust z-score":1.73,"migration class with cell-count check":"migration z between -2 and 2; enough cells","nuclei per well, duplicate mean":5502}
{"target":"NRAS","migration robust z-score":0.05,"migration class with cell-count check":"migration z between -2 and 2; enough cells","nuclei per well, duplicate mean":5626}
{"target":"SPTA1","migration robust z-score":0.57,"migration class with cell-count check":"migration z between -2 and 2; enough cells","nuclei per well, duplicate mean":5514}
{"target":"SIAH3","migration robust z-score":0.07,"migration class with cell-count check":"migration z between -2 and 2; enough cells","nuclei per well, duplicate mean":5232}
{"target":"EVA1A","migration robust z-score":0.13,"migration class with cell-count check":"migration z between -2 and 2; enough cells","nuclei per well, duplicate mean":7150}
{"target":"HLCS","migration robust z-score":0.78,"migration class with cell-count check":"migration z between -2 and 2; enough cells","nuclei per well, duplicate mean":6440}
{"target":"CBX6","migration robust z-score":0.29,"migration class with cell-count check":"migration z between -2 and 2; enough cells","nuclei per well, duplicate mean":7113}
{"target":"ATF2","migration robust z-score":"-2.46 (active)","migration class with cell-count check":"migration z below -2; enough cells","nuclei per well, duplicate mean":5537}
{"target":"RFC1","migration robust z-score":0.42,"migration class with cell-count check":"migration z between -2 and 2; enough cells","nuclei per well, duplicate mean":6182}
{"target":"OR2L3","migration robust z-score":-0.62,"migration class with cell-count check":"migration z between -2 and 2; enough cells","nuclei per well, duplicate mean":5784}
{"target":"MED22","migration robust z-score":-0.84,"migration class with cell-count check":"migration z between -2 and 2; enough cells","nuclei per well, duplicate mean":4686}
{"target":"ABHD3","migration robust z-score":-0.58,"migration class with cell-count check":"migration z between -2 and 2; enough cells","nuclei per well, duplicate mean":6209}
{"target":"ZNF574","migration robust z-score":-1.62,"migration class with cell-count check":"under 3300 nuclei; migration not judged","nuclei per well, duplicate mean":3186}
{"target":"SACK1H","migration robust z-score":-0.95,"migration class with cell-count check":"migration z between -2 and 2; enough cells","nuclei per well, duplicate mean":5663}

Reagents above called active (1):
{"target":"ATF2","migration robust z-score":"-2.46 (active)","migration class with cell-count check":"migration z below -2; enough cells","nuclei per well, duplicate mean":5537}
